For at least one entry, the source does not settle the construct or the ends of the probe. For part of these data: Where cells or extracts were used, other partners may take part. Tags and fusion partners may be left off the protein sequences shown. For part of these data: At least one verdict was read from the data and is not stated in words by the source.
Assays:
Assay in all cases: EMSA
recombinant IRP1 (rIRP1) = molecular target: T1, recombinant IRP1 (rIRP1) (UniProt P21399); settings: REMSA with excess probe; cooled non-denaturing 8% polyacrylamide gel in 0.25x TBE; binding buffer, pH and temperature not given (refers to ref 40); recombinant protein
T1 sequence (looked up, limits assumed): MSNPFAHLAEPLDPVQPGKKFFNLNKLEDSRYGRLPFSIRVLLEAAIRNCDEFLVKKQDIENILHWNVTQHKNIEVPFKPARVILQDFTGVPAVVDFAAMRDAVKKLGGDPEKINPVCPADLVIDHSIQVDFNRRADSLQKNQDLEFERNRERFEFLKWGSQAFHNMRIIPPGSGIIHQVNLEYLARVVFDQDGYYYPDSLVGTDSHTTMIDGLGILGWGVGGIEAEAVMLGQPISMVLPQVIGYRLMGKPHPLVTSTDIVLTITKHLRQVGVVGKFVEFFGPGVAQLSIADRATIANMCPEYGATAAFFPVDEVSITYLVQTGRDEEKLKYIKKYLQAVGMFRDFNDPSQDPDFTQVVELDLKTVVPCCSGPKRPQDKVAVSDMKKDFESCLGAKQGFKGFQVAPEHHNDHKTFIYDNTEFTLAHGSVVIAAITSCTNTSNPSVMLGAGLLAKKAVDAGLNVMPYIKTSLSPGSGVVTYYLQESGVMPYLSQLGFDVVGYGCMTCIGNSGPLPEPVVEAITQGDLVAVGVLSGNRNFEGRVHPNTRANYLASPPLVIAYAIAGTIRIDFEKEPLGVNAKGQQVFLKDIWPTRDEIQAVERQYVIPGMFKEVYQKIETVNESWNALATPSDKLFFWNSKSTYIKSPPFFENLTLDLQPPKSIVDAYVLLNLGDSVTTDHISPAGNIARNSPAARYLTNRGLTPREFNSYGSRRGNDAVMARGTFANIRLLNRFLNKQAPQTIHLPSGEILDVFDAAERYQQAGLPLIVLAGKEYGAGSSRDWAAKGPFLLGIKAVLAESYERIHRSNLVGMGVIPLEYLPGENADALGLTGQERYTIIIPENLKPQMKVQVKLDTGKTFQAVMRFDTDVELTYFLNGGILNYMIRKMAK

[1] = molecular target: T2, IRP1 in AML blast lysate (human) (UniProt P21399); settings: AML blast lysates, excess probe; REMSA with excess probe; cooled non-denaturing 8% polyacrylamide gel in 0.25x TBE; binding buffer, pH and temperature not given (refers to ref 40); protein in an extract
T2 sequence (looked up, limits assumed): T1 sequence (looked up, limits assumed)

recombinant IRP2 = molecular target: T3, recombinant IRP2 (UniProt P48200); settings: REMSA with excess probe; cooled non-denaturing 8% polyacrylamide gel in 0.25x TBE; binding buffer, pH and temperature not given (refers to ref 40); recombinant protein
T3 sequence (looked up, limits assumed): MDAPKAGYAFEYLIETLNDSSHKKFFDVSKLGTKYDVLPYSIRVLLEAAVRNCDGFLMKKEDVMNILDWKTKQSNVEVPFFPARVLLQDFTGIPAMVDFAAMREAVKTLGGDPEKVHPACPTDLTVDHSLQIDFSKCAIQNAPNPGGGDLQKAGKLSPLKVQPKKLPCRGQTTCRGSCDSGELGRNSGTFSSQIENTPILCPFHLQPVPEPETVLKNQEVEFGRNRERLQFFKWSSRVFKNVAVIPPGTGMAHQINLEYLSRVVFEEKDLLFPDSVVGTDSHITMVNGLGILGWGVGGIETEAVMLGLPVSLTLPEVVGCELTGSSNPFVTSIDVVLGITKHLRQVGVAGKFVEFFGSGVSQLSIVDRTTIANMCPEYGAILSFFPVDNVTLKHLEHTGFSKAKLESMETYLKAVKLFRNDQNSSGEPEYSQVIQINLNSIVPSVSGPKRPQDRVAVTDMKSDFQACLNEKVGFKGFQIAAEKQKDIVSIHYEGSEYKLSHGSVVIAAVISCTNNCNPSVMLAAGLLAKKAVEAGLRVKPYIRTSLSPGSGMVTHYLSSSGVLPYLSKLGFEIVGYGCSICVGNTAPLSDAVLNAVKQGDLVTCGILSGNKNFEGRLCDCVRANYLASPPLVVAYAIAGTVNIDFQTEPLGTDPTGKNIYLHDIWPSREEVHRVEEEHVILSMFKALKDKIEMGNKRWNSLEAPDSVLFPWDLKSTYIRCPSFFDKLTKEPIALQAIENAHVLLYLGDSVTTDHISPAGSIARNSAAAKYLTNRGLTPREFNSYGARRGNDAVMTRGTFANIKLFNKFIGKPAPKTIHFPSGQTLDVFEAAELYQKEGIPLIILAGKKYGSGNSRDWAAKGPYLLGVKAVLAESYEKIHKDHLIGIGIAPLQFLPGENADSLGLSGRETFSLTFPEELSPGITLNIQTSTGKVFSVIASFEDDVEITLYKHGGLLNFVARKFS

Measured: binding result

GGUUUCCUGCUUCAACAGUGCUUGGACGGAACCC [human ferritin H IRE probe]
binds: all assays above
